Data as given in PubChem BioAssay AID743454 (Peter MacCallum Cancer Centre, 2014)
Test: 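Genes whose loss kills vorinostat-resistant colon cancer cells under vorinostat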 (primary screen). System: human HCT116-VR colon cancer cells, selected for vorinostat resistance. Knock-down reagent: siRNA pool against human genes, 40 nM siRNA pool. Time to read-out: vorinostat for 24 h, read-out about 72 h after transfection. Treatment: vorinostat at 2.5 µM final. Detection: 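Cell viability by CellTiter-Fluor and caspase 3/7 activity by luminescence, each scaled to mock wells per plate, duplicates averaged, then robust z-scored over all plates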. Scale: viability robust z-score: higher = more viable cells than screen typical; caspase robust z-score: higher = more caspase 3/7 activity than screen typical. Rule for the call: 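a knock-down is a hit when classed RV1 or RV2 for lowered viability, or CA1 or CA2 for caspase activation; those lethal without drug were dropped; hits were retested singly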.
Here is a random part of about 18,000 reagents. Of all reagents, 450 (2.5%) were called active. 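Single biological run; no consistent viability z cut-off exists, so the class columns, not z-scores, define the calls.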 Reagent sequences are not shown.

The opening 2 records as a preview:
ACIN1 [SID152156440]
- viability hit class: no change
- caspase hit class: no change
- viability robust z-score: -1.5
- caspase robust z-score: 0.36
- activity call: inactive

GLYCTK [SID134311964]
- viability hit class: no change
- caspase hit class: CA2 (caspase activation)
- viability robust z-score: -0.82
- caspase robust z-score: 6.92
- activity call: active

The list itself, repeating the preview:
ACIN1 [SID152156440]
- viability hit class: no change
- caspase hit class: no change
- viability robust z-score: -1.5
- caspase robust z-score: 0.36
- activity call: inactive

GLYCTK [SID134311964]
- viability hit class: no change
- caspase hit class: CA2 (caspase activation)
- viability robust z-score: -0.82
- caspase robust z-score: 6.92
- activity call: active

CCDC89 [SID134319510]
- viability hit class: no change
- caspase hit class: no change
- viability robust z-score: -1.84
- caspase robust z-score: 0.88
- activity call: inactive

BMAL1 [SID134314841]
- viability hit class: no change
- caspase hit class: no change
- viability robust z-score: 0.75
- caspase robust z-score: 0.22
- activity call: inactive

LIPT1 [SID134313279]
- viability hit class: no change
- caspase hit class: no change
- viability robust z-score: -1.49
- caspase robust z-score: 1.48
- activity call: inactive

BTBD16 [SID152152902]
- viability hit class: no change
- caspase hit class: no change
- viability robust z-score: 0.56
- caspase robust z-score: -0.45
- activity call: inactive

U2AF1 [SID135622301]
- viability hit class: no change
- caspase hit class: no change
- viability robust z-score: -2.61
- caspase robust z-score: 0.31
- activity call: inactive

LGALS9 [SID135622106]
- viability hit class: no change
- caspase hit class: no change
- viability robust z-score: -0.29
- caspase robust z-score: -0.52
- activity call: inactive

CNOT6L [SID152146838]
- viability hit class: no change
- caspase hit class: no change
- viability robust z-score: 0.32
- caspase robust z-score: -0.45
- activity call: inactive

SDHAF1 [SID135625477]
- viability hit class: no change
- caspase hit class: no change
- viability robust z-score: -0.41
- caspase robust z-score: -1.02
- activity call: inactive

DRAXIN [SID152148458]
- viability hit class: no change
- caspase hit class: no change
- viability robust z-score: 1.94
- caspase robust z-score: 0.01
- activity call: inactive

REV1 [SID152154746]
- viability hit class: no change
- caspase hit class: no change
- viability robust z-score: 0.09
- caspase robust z-score: -0.63
- activity call: inactive

NPC2 [SID134321166]
- viability hit class: no change
- caspase hit class: no change
- viability robust z-score: 0.59
- caspase robust z-score: -0.34
- activity call: inactive

CUL7 [SID134321592]
- viability hit class: no change
- caspase hit class: no change
- viability robust z-score: -0.72
- caspase robust z-score: -0.92
- activity call: inactive
